{
  "sequences": {"note": "By UniProt entry, the sequences of proteins in these tests, tags left out. Residues count along the entry.", "UniProt O88704": "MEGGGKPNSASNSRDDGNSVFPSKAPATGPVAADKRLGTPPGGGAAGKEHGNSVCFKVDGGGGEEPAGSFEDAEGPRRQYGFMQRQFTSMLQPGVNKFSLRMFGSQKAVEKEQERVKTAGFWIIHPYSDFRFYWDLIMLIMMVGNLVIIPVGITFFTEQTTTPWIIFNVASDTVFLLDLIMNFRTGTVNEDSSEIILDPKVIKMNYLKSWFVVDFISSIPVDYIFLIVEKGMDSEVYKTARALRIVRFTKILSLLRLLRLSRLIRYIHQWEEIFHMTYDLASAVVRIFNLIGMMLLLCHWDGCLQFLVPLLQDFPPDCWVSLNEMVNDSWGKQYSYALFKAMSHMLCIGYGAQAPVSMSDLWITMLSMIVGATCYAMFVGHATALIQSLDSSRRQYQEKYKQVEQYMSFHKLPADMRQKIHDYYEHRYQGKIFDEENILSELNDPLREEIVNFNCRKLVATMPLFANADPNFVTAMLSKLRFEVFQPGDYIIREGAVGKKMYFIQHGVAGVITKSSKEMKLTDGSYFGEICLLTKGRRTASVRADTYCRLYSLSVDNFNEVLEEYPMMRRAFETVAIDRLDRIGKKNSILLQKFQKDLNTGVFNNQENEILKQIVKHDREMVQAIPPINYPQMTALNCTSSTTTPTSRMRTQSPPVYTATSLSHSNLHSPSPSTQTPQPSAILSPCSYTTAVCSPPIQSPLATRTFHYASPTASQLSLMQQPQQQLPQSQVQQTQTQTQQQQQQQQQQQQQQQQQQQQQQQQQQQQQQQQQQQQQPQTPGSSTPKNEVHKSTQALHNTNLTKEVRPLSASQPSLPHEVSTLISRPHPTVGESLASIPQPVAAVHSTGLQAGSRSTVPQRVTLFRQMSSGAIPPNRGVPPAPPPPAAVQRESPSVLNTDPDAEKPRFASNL", "UniProt P12023, residues 18-770": "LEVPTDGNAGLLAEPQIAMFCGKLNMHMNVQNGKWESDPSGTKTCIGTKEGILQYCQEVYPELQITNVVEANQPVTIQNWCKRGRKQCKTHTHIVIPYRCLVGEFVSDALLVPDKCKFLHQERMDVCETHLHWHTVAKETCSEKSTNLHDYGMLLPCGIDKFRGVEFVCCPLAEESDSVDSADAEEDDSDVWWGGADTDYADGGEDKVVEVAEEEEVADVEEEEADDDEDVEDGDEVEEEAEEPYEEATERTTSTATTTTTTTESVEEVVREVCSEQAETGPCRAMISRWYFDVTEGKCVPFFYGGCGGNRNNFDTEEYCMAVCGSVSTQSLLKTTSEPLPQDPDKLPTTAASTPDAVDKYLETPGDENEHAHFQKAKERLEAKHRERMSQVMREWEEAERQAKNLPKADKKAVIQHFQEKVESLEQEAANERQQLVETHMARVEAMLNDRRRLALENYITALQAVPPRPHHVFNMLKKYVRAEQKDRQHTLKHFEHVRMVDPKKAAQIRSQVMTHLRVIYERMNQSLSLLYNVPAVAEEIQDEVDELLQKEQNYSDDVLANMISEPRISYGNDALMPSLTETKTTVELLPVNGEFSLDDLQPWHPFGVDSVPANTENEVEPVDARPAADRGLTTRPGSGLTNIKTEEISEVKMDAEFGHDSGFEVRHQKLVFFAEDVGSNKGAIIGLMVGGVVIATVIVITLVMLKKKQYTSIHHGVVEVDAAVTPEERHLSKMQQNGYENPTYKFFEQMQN"},
  "source": "paper PMC3524764",
  "key": {"[1]": {"target": "murine HCN1, transiently overexpressed in N2a cells (mouse) (UniProt O88704)", "assay": "co-IP; N2a cells transiently transfected with an APP construct and pCI-murine HCN1, lysed in PBS with 1.0% Triton X-100; precipitated with anti-FLAG M2, anti-hAPP extracellular domain (LN27) or anti-HCN1 antibody, 4°C 2 h, Dynabeads Protein G; immunoblot; also with or without 10 μM ZD7288 (Figure S5, no influence on the interaction)"}, "[2]": {"target": "HCN1 (hyperpolarization-activated cyclic nucleotide gated channel 1), endogenous in mouse brain (mouse (endogenous in mouse brain)) (UniProt O88704)", "assay": "co-IP; lysate of the EC-rich cortex region (from five mice) of HCN1+/+ and HCN1-/- mice in HBS-T lysis buffer; precipitated with anti-HCN1 antibody, 4°C 2 h, Dynabeads Protein G; immunoblot"}, "[3]": {"target": "HCN1 (hyperpolarization-activated cyclic nucleotide gated channel 1), endogenous in mouse brain (mouse (endogenous in mouse brain)) (UniProt O88704)", "assay": "co-IP; lysate of the cortex of wild type mice (13 weeks old in Figure 3I-K) in HBS-T lysis buffer (10 mM HEPES pH 7.6, 150 mM NaCl, 5 mM EDTA, 0.5% Triton X-100); precipitated with anti-HCN1, anti-X11 or anti-X11L/Mint2 antibody, 4°C 2 h, Dynabeads Protein G; immunoblot; HCN1-/-, X11-/- or X11L-/- mice as controls"}, "[4]": {"target": "FLAG-APP (FLAG-tagged human APP695) (human) (UniProt P05067)", "assay": "co-IP; N2a cells transiently transfected with an APP construct and pCI-murine HCN1, lysed in PBS with 1.0% Triton X-100; precipitated with anti-FLAG M2, anti-hAPP extracellular domain (LN27) or anti-HCN1 antibody, 4°C 2 h, Dynabeads Protein G; immunoblot; also with or without 10 μM ZD7288 (Figure S5, no influence on the interaction)"}},
  "note": "No constants are given. Whether binding was seen depends on the method and setting. In cells and extracts the contact can be indirect. Some entries that bind do so weakly or less than the wild type.",
  "data": [
    {"substance": "APPΔcyt (human APP695 lacking the cytoplasmic carboxyl terminal region) (from UniProt P05067-4 18-651) (domain or fragment)", "values": [
      {"measurement": "binding", "setting": "[1]", "result": "binds"}
    ]},
    {"substance": "FLAG-APP (FLAG-tagged human APP695) (from UniProt P05067-4 18-695)", "values": [
      {"measurement": "binding", "setting": "[1]", "result": "binds"}
    ]},
    {"substance": "amyloid-β precursor protein (APP), endogenous in mouse brain (from UniProt P12023 18-770)", "values": [
      {"measurement": "binding", "setting": "[2]", "result": "binds"},
      {"measurement": "binding", "setting": "[3]", "result": "binds"}
    ]},
    {"substance": "murine HCN1, transiently overexpressed in N2a cells (from UniProt O88704 1-910)", "values": [
      {"measurement": "binding", "setting": "[4]", "result": "binds"}
    ]}
  ]
}
